These are yes or no findings as the source states them, for the method shown.
T1: Pan1 (S. cerevisiae, UniProt P32521 1-1480)
T1 construct: Pan1, S. cerevisiae; also called Pan1-1myeGFP; Pan1-3mCherry; source: chromosomally tagged at the endogenous locus, in the cytoplasm of living S. cerevisiae cells
T1 sequence (looked up): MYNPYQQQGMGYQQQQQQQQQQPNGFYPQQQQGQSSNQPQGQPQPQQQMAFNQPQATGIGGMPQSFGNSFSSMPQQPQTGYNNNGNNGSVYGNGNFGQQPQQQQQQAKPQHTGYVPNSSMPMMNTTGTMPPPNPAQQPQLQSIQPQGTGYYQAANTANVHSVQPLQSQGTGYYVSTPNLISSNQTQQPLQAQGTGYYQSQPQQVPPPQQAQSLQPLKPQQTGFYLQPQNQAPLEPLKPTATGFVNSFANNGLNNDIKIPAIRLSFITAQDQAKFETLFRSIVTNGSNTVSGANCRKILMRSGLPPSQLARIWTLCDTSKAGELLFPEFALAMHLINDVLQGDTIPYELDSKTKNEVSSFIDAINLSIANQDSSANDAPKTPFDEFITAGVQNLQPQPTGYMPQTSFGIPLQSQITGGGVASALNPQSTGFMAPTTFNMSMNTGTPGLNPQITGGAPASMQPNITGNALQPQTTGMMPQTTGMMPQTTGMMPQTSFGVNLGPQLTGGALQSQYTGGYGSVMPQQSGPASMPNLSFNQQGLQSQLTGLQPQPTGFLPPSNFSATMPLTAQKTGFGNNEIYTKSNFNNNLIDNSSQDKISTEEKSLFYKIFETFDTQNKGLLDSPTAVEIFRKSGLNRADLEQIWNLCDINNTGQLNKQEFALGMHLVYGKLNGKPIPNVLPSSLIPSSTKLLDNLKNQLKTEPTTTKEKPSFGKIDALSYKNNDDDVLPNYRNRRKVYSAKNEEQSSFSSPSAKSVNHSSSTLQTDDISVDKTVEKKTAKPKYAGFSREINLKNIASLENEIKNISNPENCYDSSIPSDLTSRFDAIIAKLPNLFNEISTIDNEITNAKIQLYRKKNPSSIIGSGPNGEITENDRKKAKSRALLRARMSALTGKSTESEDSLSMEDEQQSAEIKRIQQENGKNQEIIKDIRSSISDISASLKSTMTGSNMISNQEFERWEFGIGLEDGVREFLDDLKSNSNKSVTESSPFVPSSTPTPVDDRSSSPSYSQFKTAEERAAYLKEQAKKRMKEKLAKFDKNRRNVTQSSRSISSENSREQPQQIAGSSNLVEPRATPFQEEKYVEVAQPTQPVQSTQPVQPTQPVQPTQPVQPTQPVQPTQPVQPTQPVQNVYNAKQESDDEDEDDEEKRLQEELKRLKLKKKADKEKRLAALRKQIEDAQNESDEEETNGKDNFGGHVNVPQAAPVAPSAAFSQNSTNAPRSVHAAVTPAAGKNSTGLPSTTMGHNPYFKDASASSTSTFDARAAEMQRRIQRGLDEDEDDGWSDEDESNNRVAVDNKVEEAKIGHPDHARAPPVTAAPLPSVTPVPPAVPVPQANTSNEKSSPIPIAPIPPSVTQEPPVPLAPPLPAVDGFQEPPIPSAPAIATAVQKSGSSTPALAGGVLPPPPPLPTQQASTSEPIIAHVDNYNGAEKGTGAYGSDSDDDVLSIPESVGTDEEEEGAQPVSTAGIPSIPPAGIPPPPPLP

T2: Scd5 (S. cerevisiae) (UniProt P34758)
T2 sequence: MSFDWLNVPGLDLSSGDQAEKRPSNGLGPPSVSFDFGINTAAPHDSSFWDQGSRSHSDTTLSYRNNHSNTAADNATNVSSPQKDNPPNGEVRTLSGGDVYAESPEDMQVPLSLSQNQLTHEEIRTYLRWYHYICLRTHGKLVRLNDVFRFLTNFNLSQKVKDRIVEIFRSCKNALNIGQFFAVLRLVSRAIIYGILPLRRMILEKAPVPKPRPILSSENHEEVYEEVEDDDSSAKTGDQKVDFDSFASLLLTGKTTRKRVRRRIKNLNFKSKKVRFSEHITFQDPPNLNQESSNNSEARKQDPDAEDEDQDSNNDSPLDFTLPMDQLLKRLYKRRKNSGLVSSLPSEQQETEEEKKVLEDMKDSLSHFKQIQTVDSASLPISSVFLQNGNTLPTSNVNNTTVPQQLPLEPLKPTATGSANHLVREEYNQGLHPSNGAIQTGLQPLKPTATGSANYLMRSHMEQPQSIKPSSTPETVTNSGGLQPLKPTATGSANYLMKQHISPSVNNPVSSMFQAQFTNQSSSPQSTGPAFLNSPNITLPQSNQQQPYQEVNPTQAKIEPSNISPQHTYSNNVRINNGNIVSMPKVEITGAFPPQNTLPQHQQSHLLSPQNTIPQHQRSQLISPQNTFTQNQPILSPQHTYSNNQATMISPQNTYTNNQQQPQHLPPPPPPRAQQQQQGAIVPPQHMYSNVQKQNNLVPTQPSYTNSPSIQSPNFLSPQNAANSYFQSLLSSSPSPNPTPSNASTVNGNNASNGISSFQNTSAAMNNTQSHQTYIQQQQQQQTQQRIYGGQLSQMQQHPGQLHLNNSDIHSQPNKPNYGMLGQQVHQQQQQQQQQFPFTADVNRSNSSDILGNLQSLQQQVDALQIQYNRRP

B1: Pan1 (protein, UniProt P32521 1-1480)
chain: T1 sequence (looked up)
B2: Scd5 (protein, UniProt P34758 1-872)
chain: T2 sequence

Tests used:
[1] = target: T1, Pan1; test: condition: detection range of FCCS: apparent KD up to ~1 μM; fluorescence cross-correlation spectroscopy (FCCS); self-interaction: living diploid yeast cells with one allele fused to (3)myeGFP and one to (3)mCherry, cytoplasm; apparent (effective) KD, to be taken as the upper limit since complexes of one colour are not seen
[2] = target: T2, Scd5 (S. cerevisiae); test: condition: 1000 nM (only Kdeff-values < 1000 nM are shown); fluorescence cross-correlation spectroscopy (FCCS); in the cytoplasm of living yeast cells; first-named protein green (3myeGFP or 1myeGFP; eGFP for Don1), second red (3mCherry); self-interaction in diploid strains with one allele of each colour; apparent or effective KD (Kdeff) from single-cell measurements; only Kdeff values < 1000 nM are shown; values for self-interactions are upper limits

Binder	binding [1]	binding [2]
B1	no binding	
B2		no binding

Source: paper PMC4299599, “Quantification of cytosolic interactions identifies Ede1 oligomers as key organizers of endocytosis” (Molecular Systems Biology, 2014)
